This note sets out measurements from article PMC8881602.

Amino acid sequences for entries named in this document (tags omitted). Residues count along the entry.
UniProt Q3UVX5, residues 19-1203: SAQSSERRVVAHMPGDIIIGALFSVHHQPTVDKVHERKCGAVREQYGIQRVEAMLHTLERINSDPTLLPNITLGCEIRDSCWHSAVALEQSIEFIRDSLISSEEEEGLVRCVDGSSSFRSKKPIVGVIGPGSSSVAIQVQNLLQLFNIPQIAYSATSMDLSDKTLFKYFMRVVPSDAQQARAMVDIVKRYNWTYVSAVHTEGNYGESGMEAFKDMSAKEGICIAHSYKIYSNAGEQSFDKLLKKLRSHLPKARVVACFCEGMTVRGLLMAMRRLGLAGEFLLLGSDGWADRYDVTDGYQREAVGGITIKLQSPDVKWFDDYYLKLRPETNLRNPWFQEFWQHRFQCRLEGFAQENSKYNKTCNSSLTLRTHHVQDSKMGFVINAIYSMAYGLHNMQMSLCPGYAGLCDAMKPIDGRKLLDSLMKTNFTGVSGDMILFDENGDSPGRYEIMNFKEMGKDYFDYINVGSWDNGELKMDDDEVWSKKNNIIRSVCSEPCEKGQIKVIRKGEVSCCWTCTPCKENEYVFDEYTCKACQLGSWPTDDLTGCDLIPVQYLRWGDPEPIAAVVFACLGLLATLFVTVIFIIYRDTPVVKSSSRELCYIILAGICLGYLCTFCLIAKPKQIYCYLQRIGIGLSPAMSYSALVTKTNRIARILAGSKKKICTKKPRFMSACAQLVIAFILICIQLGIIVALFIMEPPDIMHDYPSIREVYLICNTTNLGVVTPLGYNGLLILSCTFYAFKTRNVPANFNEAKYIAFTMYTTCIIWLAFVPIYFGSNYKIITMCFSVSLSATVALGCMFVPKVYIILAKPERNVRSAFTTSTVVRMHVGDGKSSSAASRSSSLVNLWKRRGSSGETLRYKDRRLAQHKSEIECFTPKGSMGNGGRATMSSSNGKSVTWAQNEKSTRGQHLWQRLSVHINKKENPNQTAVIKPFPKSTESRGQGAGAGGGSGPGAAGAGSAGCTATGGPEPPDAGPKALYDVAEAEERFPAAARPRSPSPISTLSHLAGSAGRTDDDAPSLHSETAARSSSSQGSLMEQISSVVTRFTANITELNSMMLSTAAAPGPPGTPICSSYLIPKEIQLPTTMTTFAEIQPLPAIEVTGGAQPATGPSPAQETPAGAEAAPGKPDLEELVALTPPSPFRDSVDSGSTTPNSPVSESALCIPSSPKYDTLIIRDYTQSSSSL

Assay [1] addresses T1, Homer protein homolog 1 (mouse (endogenous in cortical slices)) (UniProt Q9Z2Y3).
T1 sequence: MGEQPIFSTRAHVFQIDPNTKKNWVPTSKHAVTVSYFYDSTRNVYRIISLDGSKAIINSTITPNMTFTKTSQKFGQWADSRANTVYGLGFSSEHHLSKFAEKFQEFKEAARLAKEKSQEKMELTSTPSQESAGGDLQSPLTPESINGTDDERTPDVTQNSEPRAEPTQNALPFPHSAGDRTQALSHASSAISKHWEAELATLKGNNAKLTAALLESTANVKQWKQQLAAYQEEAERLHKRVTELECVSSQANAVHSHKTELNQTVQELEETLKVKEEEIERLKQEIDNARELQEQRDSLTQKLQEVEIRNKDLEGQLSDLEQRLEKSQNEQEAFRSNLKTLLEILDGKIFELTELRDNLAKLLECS
In words: affinity purification with mass spectrometry; Homer1 precipitated with antibody AT1F3 and Protein G magnetic beads from 1% NP-40 lysates of acute cortical slices kept in control aCSF; label-free DIA LC-MS/MS; hits are peptides or proteins enriched in WT against Homer1 KO mice (log2FC at least 1); Homer2 and Homer3 stayed enriched after 5 min 50 mM KCl.

Assay [2] has as its target T1, Homer protein homolog 1 (mouse (endogenous in cortical slices)). Nature of the assay: condition: only after 5 min of 50 mM KCl on the slices; affinity purification with mass spectrometry; as a1, but slices depolarised with 50 mM KCl for 5 min at 37 °C before lysis; WT-KCl against KO-KCl (log2FC at least 1, p < 0.01).

Results are given in words; binding and its absence hold for the method and conditions named. In cells and extracts the contact can be indirect. A yes stands for co-enrichment or nearness to the bait. Other partners may have been found. For some of these results: No binding means not detected with the bait.

For “Metabotropic glutamate receptor 5 (from UniProt Q3UVX5 19-1203)”, the binding entry was “binds” in assay [1] and “no binding” in assay [2].

B1: SH3 and multiple ankyrin repeat domains protein 2 (protein, UniProt Q80Z38 1-1476)
chain: MKSLLNAFTKKEVPFREAPAYSNRRRRPPNTLAAPRVLLRSNSDNNLNAGAPEWAVCSAATSHRSLSPQLLQQTPSKPDGATKSLGSYTPGPRSRSPSLNRLGGTAEDGKRTQPHWHVGSPFTPGANKDSLSTFEYPGPRRKLYSAVPGRLFVAVKPYQPQVDGEIPLHRGDRVKVLSIGEGGFWEGSARGHIGWFPAECVEEVQCKPRDSQAETRADRSKKLFRHYTVGSYDSFDAASDCIIEDKTVVLQKKDNEGFGFVLRGAKADTPIEEFTPTPAFPALQYLESVDEGGVAWQAGLRTGDFLIEVNNENVVKVGHRQVVNMIRQGGNHLILKVVTVTRNLDPDDTARKKAPPPPKRAPTTALTLRSKSMTAELEELGLSLVDKASVRKKKDKPEEIVPASKPSRTAENVAIESRVATIKQRPTSRCFPAASDVNSVYERQGIAVMTPTVPGSPKGPFLGLPRGTMRRQKSIDSRIFLSGITEEERQFLAPPMLKFTRSLSMPDTSEDIPPPPQSVPPSPPPPSPTTYNCPRSPTPRVYGTIKPAFNQNPVVAKVPPATRSDTVATMMREKGMFYRRELDRFSLDSEDVYSRSPAPQAAFRTKRGQMPENPYSEVGKIASKAVYVPAKPARRKGVLVKQSNVEDSPEKTCSIPIPTIIVKEPSTSSSGKSSQGSSMEIDPQATEPGQLRPDDSLTVSSPFAAAIAGAVRDREKRLEARRNSPAFLSTDLGDEDVGLGPPAPRMQASKFPEEGGFGDEDETEQPLLPTPGAAPRELENHFLGGGEAGAQGEAGGPLSSTSKAKGPESGPAAPLKSSSPAGPENYVHPLTGRLLDPSSPLALALSARDRAMQESQQGHKGEAPKADLNKPLYIDTKMRPSVESGFPPVTRQNTRGPLRRQETENKYETDLGKDRRADDKKNMLINIVDTAQQKSAGLLMVHTVDVPMAGPPLEEEEDREDGDTKPDHSPSTVPEGVPKTEGALQISAAPEPAVAPGRTIVAAGSVEEAVILPFRIPPPPLASVDLDEDFLFTEPLPPPLEFANSFDIPDDRAASVPALADLVKQKKNDTSQPPTLNSSQPANSTDSKKPAGISNCLPSSFLPPPESFDAVTDSGIEEVDSRSSSDHHLETTSTISTVSSISTLSSEGGESMDTCTVYADGQAFVVDKPPVPPKPKMKPIVHKSNALYQDTLPEEDTDGFVIPPPAPPPPPGSAQAGVAKVIQPRTSKLWGDVPEVKSPILSGPKANVISELNSILQQMNRGKSVKPGEGLELPVGAKSANLAPRSPEVMSTVSGTRSTTVTFTVRPGTSQPITLQSRPPDYESRTSGPRRAPSPVVSPTELSKEILPTPPPPSATAASPSPTLSDVFSLPSQSPAGDLFGLNPAGRSRSPSPSILQQPISNKPFTTKPVHLWTKPDVADWLESLNLGEHKETFMDNEIDGSHLPNLQKEDLIDLGVTRVGHRMNIERALKQLLDR
With B1, the binding result in assay [1] is given as “binds”.

B2: Homer protein homolog 2 (protein, UniProt Q9QWW1 1-354)
chain: MGEQPIFTTRAHVFQIDPSTKKNWVPASKQAVTVSYFYDVTRNSYRIISVDGAKVIINSTITPNMTFTKTSQKFGQWADSRANTVFGLGFSSELQLTKFAEKFQEVREAARLARDKSQEKTETSSNHSQESGCETPSSTQASSVNGTDDEKASHASPADTHLKSENDKLKIALTQSAANVKKWEMELQTLRESNARLTTALQESAASVEQWKRQFSICRDENDRLRSKIEELEEQCSEINREKEKNTQLKRRIEELESEVRDKEMELKDLRKQSEIIPQLMSECEYVSEKLEAAERDNQNLEDKVRSLKTDIEESKYRQRHLKGELKSFLEVLDGKIDDLHDFRRGLSKLGTDN
For the molecule B2, the binding entry in assay [1] was “binds”.
